# Experimental data reported in the supplement of paper PMC12595434, “Development of retinoid nuclear receptor pathway antagonists through targeting aldehyde dehydrogenase 1A3” (iScience, 2025).
# Protein sequences, listed by entry. Tags and fused reporters are not part of them. Lines headed by an entry give the natural chain unless they say otherwise; changes in a name come on top.
# UniProt P25686: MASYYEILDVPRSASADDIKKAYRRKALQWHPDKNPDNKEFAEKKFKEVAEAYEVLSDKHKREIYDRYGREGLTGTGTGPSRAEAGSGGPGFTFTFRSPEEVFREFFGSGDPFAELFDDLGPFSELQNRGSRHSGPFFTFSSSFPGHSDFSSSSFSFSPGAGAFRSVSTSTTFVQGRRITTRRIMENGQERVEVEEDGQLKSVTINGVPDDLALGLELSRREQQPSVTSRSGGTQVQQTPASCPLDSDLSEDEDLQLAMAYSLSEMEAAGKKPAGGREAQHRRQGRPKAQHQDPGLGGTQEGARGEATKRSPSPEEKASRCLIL
# UniProt P28482, whole entry: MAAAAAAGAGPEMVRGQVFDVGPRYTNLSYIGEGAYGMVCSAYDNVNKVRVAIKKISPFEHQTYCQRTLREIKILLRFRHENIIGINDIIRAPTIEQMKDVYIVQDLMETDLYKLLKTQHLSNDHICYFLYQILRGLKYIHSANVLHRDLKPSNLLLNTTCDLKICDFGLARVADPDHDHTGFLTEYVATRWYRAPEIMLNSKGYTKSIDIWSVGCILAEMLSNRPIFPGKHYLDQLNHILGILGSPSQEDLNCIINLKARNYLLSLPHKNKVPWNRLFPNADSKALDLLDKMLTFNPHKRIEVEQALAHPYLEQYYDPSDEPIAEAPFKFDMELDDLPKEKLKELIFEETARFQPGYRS
# UniProt P29992, whole entry: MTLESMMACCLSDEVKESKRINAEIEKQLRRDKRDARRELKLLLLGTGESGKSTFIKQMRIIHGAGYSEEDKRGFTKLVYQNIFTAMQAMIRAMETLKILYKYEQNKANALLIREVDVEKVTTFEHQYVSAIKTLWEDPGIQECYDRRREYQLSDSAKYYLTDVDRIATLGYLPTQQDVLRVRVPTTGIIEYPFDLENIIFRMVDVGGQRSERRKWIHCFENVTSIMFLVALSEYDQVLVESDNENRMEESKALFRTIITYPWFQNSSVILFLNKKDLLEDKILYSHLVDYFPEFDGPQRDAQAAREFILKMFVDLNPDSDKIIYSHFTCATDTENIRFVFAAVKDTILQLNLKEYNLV
# UniProt P22314: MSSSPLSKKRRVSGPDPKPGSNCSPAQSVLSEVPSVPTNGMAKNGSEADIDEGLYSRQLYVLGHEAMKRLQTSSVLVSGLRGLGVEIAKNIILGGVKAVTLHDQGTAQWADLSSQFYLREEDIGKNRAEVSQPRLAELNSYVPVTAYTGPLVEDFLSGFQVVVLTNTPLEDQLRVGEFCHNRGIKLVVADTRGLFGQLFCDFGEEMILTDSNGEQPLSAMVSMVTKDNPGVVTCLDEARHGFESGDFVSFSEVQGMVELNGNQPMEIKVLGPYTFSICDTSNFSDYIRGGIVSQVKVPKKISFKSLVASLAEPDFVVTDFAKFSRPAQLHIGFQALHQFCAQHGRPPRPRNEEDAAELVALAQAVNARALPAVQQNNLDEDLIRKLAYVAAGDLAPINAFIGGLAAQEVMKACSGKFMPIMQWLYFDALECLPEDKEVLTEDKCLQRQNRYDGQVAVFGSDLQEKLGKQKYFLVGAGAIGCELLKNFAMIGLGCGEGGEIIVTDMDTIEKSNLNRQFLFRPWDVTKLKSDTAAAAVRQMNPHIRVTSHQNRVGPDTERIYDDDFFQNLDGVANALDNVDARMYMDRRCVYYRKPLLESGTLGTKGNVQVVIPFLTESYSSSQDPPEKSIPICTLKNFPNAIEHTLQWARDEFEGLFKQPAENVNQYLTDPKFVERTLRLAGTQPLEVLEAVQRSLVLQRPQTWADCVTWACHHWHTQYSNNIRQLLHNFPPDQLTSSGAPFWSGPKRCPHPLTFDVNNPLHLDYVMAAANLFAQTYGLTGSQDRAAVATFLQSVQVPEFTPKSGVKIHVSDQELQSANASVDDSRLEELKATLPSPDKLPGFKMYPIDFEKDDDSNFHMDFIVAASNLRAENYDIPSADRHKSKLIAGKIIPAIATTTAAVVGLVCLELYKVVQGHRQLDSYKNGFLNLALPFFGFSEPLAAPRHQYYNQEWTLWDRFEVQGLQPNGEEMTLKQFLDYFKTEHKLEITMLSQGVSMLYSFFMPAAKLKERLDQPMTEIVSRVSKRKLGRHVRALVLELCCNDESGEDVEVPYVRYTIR
# UniProt P29323: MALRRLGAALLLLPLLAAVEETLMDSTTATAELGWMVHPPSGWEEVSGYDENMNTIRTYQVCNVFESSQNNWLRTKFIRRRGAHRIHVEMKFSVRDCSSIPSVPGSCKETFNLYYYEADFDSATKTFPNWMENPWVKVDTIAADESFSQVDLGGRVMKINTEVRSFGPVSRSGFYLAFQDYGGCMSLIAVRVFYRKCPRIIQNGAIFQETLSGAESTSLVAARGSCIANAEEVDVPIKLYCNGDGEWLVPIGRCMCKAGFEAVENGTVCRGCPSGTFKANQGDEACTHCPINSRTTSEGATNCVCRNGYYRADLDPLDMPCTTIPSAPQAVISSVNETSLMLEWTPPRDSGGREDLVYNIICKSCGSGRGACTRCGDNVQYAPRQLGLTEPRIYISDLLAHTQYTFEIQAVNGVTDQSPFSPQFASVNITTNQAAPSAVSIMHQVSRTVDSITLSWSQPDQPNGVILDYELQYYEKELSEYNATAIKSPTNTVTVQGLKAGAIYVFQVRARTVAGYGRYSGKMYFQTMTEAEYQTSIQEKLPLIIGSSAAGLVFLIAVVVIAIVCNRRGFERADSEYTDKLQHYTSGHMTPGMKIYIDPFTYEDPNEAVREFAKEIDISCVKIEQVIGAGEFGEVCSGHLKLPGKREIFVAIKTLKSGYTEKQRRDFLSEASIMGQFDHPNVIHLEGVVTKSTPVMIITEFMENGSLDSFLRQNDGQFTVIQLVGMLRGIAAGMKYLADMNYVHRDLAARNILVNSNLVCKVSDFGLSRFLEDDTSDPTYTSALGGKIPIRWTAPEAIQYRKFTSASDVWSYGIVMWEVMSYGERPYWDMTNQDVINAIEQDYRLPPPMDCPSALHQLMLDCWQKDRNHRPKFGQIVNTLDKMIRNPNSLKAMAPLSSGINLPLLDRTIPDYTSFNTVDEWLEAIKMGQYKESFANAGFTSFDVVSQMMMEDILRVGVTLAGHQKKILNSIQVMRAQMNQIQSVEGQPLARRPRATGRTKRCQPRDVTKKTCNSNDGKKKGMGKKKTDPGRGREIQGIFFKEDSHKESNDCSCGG
# UniProt P26885: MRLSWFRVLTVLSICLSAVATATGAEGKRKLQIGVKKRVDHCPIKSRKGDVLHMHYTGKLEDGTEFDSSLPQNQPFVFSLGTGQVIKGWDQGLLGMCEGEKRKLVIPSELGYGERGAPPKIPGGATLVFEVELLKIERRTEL
# UniProt P30101, whole entry: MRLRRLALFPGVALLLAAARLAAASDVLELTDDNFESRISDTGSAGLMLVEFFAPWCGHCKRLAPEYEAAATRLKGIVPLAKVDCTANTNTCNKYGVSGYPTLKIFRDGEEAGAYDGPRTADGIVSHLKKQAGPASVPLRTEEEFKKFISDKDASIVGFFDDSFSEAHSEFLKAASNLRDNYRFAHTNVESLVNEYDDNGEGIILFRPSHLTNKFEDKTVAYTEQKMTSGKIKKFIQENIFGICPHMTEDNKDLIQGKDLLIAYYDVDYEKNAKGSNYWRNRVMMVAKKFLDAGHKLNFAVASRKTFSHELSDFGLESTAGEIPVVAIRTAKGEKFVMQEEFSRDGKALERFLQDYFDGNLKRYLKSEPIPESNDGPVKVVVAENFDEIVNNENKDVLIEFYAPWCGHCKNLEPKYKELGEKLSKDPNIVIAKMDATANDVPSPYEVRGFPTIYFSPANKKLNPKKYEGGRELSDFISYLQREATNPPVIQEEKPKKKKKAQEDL
# UniProt P30626: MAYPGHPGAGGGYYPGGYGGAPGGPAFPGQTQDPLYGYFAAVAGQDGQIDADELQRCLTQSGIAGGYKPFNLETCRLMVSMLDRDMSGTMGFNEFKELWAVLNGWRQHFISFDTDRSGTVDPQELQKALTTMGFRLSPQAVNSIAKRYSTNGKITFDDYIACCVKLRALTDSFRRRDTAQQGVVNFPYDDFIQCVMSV
# UniProt P30740: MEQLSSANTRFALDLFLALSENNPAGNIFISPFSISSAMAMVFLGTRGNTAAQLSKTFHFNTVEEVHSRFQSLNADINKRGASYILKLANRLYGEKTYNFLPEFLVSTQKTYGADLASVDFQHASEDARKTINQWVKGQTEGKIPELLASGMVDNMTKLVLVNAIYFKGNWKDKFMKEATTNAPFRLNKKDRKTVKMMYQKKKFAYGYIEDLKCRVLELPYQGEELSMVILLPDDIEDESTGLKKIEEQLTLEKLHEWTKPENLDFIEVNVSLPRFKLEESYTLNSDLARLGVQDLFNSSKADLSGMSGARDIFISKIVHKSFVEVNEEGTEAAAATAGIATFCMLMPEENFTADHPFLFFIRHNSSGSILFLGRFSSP
# UniProt P30048: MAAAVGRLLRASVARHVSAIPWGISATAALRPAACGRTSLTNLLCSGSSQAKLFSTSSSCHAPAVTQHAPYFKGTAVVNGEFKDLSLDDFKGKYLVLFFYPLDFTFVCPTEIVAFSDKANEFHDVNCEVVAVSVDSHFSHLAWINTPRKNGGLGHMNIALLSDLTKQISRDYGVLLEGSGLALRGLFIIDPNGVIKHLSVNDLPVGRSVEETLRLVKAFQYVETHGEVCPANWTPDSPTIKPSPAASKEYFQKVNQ
# UniProt P31323, whole entry: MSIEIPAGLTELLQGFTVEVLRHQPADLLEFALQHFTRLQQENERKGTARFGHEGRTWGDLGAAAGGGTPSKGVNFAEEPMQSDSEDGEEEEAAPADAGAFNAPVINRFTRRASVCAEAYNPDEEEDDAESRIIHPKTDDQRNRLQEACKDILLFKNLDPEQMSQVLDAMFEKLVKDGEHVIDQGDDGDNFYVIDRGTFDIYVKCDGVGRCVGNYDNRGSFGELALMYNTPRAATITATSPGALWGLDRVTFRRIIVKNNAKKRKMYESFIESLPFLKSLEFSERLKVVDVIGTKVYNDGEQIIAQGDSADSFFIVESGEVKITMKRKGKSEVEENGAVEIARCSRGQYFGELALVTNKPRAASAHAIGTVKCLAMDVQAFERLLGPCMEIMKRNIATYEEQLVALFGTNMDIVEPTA
# UniProt P36957: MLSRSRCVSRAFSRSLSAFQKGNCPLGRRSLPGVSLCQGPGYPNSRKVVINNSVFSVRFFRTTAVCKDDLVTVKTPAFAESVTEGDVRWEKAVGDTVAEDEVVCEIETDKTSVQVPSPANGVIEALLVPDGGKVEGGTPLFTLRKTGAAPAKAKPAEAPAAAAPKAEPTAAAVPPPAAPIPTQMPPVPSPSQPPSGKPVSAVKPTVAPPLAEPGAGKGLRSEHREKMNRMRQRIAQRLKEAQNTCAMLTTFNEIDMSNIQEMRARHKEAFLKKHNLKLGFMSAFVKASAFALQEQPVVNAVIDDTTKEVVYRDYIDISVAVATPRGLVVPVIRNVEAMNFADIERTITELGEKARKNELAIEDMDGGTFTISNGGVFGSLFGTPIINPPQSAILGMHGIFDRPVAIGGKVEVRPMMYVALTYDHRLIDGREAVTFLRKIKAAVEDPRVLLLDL
# UniProt P32119: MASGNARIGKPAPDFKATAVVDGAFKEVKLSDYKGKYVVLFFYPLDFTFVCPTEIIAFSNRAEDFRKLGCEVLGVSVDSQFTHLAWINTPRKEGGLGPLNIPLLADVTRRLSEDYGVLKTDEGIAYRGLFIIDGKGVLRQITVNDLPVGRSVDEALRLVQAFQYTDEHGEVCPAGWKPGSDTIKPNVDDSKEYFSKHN
# UniProt P23919: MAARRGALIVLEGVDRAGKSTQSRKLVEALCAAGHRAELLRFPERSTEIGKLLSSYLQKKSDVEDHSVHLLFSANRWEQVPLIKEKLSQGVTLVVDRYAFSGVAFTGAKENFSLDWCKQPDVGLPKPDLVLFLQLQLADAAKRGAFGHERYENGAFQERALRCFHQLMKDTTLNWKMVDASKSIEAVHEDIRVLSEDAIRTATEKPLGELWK
# UniProt P30291: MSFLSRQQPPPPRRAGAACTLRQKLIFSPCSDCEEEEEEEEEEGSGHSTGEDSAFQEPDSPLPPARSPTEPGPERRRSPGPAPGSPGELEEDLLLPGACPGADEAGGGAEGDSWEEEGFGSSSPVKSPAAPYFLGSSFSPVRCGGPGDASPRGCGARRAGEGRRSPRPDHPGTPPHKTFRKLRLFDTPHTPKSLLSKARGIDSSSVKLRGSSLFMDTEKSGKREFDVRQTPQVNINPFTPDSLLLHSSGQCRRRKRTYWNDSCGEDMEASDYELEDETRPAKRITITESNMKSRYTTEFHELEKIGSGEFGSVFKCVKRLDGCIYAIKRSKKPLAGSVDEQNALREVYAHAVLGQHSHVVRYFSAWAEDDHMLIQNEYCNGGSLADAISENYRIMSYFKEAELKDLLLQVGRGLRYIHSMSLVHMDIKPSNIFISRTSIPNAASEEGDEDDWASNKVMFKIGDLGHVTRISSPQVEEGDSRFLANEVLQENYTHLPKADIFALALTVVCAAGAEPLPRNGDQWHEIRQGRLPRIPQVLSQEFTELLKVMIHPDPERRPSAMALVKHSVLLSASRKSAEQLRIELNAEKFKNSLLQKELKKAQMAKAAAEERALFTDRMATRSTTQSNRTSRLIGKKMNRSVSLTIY
# This is one part of the list. This is a noisy data set.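 Many melting curves are irregular; where none melted, Tm was taken as 64 °C.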
# Compound: CCc1cnccc1C(=O)Nc1cc2c(cc1F)NC(=O)CC2
# Experiment: melting temperature shift (DMSO Tm minus MBE1-treated Tm) in cellular thermal proteome profiling; higher = less thermal stabilization by MBE1 (negative = stabilized by MBE1)
# Details: A375
target,measurement,setting,value
DNAJB2 (UniProt P25686),melting temperature shift,MBE1 concentration: 100 nM,0.282 °C
same,melting temperature shift,MBE1 concentration: 1 uM,0.0366 °C
CAD (UniProt P27708),melting temperature shift,MBE1 concentration: 100 nM,0.623 °C
same,melting temperature shift,MBE1 concentration: 1 uM,0.122 °C
UniProt P35052,melting temperature shift,MBE1 concentration: 100 nM,-6.63 °C
same,melting temperature shift,MBE1 concentration: 1 uM,-2.49 °C
LRPAP1 (UniProt P30533),melting temperature shift,MBE1 concentration: 100 nM,-1.82 °C
same,melting temperature shift,MBE1 concentration: 1 uM,-3.48 °C
UniProt P28482,melting temperature shift,MBE1 concentration: 100 nM,-0.434 °C
same,melting temperature shift,MBE1 concentration: 1 uM,0.0794 °C
LMNB1 (UniProt P20700),melting temperature shift,MBE1 concentration: 100 nM,0.574 °C
same,melting temperature shift,MBE1 concentration: 1 uM,0.0183 °C
PML (UniProt P29590),melting temperature shift,MBE1 concentration: 100 nM,0.259 °C
same,melting temperature shift,MBE1 concentration: 1 uM,-0.171 °C
EIF4B (UniProt P23588),melting temperature shift,MBE1 concentration: 100 nM,-1.94 °C
same,melting temperature shift,MBE1 concentration: 1 uM,-2.44 °C
CDK2 (UniProt P24941),melting temperature shift,MBE1 concentration: 100 nM,-0.315 °C
same,melting temperature shift,MBE1 concentration: 1 uM,0.682 °C
ADSL (UniProt P30566),melting temperature shift,MBE1 concentration: 100 nM,-0.592 °C
same,melting temperature shift,MBE1 concentration: 1 uM,0.105 °C
JAK1 (UniProt P23458),melting temperature shift,MBE1 concentration: 100 nM,0 °C
same,melting temperature shift,MBE1 concentration: 1 uM,-0.476 °C
ACO1 (UniProt P21399),melting temperature shift,MBE1 concentration: 100 nM,-0.362 °C
same,melting temperature shift,MBE1 concentration: 1 uM,0.698 °C
UniProt P27338,melting temperature shift,MBE1 concentration: 100 nM,-5.16 °C
same,melting temperature shift,MBE1 concentration: 1 uM,-2.5 °C
SERPINB6 (UniProt P35237),melting temperature shift,MBE1 concentration: 100 nM,-0.959 °C
same,melting temperature shift,MBE1 concentration: 1 uM,0.342 °C
YWHAB (UniProt P31946),melting temperature shift,MBE1 concentration: 100 nM,-0.436 °C
same,melting temperature shift,MBE1 concentration: 1 uM,-0.503 °C
ADSS (UniProt P30520),melting temperature shift,MBE1 concentration: 100 nM,-0.933 °C
same,melting temperature shift,MBE1 concentration: 1 uM,-0.55 °C
CPOX (UniProt P36551),melting temperature shift,MBE1 concentration: 100 nM,-1.7 °C
same,melting temperature shift,MBE1 concentration: 1 uM,0.214 °C
UniProt P21397,melting temperature shift,MBE1 concentration: 100 nM,-0.611 °C
same,melting temperature shift,MBE1 concentration: 1 uM,-0.122 °C
ATP5C1 (UniProt P36542),melting temperature shift,MBE1 concentration: 100 nM,-0.958 °C
same,melting temperature shift,MBE1 concentration: 1 uM,-0.853 °C
SSFA2 (UniProt P28290),melting temperature shift,MBE1 concentration: 100 nM,-1.25 °C
same,melting temperature shift,MBE1 concentration: 1 uM,-0.533 °C
GNA11 (UniProt P29992),melting temperature shift,MBE1 concentration: 100 nM,-0.455 °C
same,melting temperature shift,MBE1 concentration: 1 uM,0.00611 °C
UBA1 (UniProt P22314),melting temperature shift,MBE1 concentration: 100 nM,0.391 °C
same,melting temperature shift,MBE1 concentration: 1 uM,0.202 °C
EPHB2 (UniProt P29323),melting temperature shift,MBE1 concentration: 100 nM,-0.738 °C
same,melting temperature shift,MBE1 concentration: 1 uM,0.104 °C
IVD (UniProt P26440),melting temperature shift,MBE1 concentration: 100 nM,-0.825 °C
same,melting temperature shift,MBE1 concentration: 1 uM,0.456 °C
FKBP2 (UniProt P26885),melting temperature shift,MBE1 concentration: 100 nM,-1.29 °C
same,melting temperature shift,MBE1 concentration: 1 uM,1.04 °C
FLNA (UniProt P21333),melting temperature shift,MBE1 concentration: 100 nM,0.458 °C
same,melting temperature shift,MBE1 concentration: 1 uM,-0.153 °C
MSH3 (UniProt P20585),melting temperature shift,MBE1 concentration: 100 nM,1.12 °C
same,melting temperature shift,MBE1 concentration: 1 uM,0.525 °C
CMPK1 (UniProt P30085),melting temperature shift,MBE1 concentration: 100 nM,-0.305 °C
same,melting temperature shift,MBE1 concentration: 1 uM,0.342 °C
GDI1 (UniProt P31150),melting temperature shift,MBE1 concentration: 100 nM,-0.657 °C
same,melting temperature shift,MBE1 concentration: 1 uM,-0.282 °C
SP100 (UniProt P23497),melting temperature shift,MBE1 concentration: 100 nM,-0.966 °C
same,melting temperature shift,MBE1 concentration: 1 uM,0.745 °C
POLD1 (UniProt P28340),melting temperature shift,MBE1 concentration: 100 nM,-0.635 °C
same,melting temperature shift,MBE1 concentration: 1 uM,-0.819 °C
VARS (UniProt P26640),melting temperature shift,MBE1 concentration: 100 nM,0.647 °C
same,melting temperature shift,MBE1 concentration: 1 uM,0.238 °C
HMGCL (UniProt P35914),melting temperature shift,MBE1 concentration: 100 nM,0.651 °C
same,melting temperature shift,MBE1 concentration: 1 uM,0.541 °C
LONP1 (UniProt P36776),melting temperature shift,MBE1 concentration: 100 nM,-0.806 °C
same,melting temperature shift,MBE1 concentration: 1 uM,0.581 °C
UniProt P35609,melting temperature shift,MBE1 concentration: 100 nM,-7.58 °C
same,melting temperature shift,MBE1 concentration: 1 uM,-4.63 °C
UniProt P35711,melting temperature shift,MBE1 concentration: 100 nM,0.885 °C
same,melting temperature shift,MBE1 concentration: 1 uM,-0.751 °C
RDX (UniProt P35241),melting temperature shift,MBE1 concentration: 100 nM,-0.672 °C
same,melting temperature shift,MBE1 concentration: 1 uM,-0.611 °C
PDIA3 (UniProt P30101),melting temperature shift,MBE1 concentration: 100 nM,-1.05 °C
same,melting temperature shift,MBE1 concentration: 1 uM,-0.402 °C
ERCC5 (UniProt P28715),melting temperature shift,MBE1 concentration: 100 nM,0.0244 °C
same,melting temperature shift,MBE1 concentration: 1 uM,0.269 °C
SRI (UniProt P30626),melting temperature shift,MBE1 concentration: 100 nM,-0.759 °C
same,melting temperature shift,MBE1 concentration: 1 uM,-0.845 °C
RPS12 (UniProt P25398),melting temperature shift,MBE1 concentration: 100 nM,-0.721 °C
same,melting temperature shift,MBE1 concentration: 1 uM,0.0366 °C
ABCD1 (UniProt P33897),melting temperature shift,MBE1 concentration: 100 nM,-1.06 °C
same,melting temperature shift,MBE1 concentration: 1 uM,-0.776 °C
SERPINB1 (UniProt P30740),melting temperature shift,MBE1 concentration: 100 nM,-0.262 °C
same,melting temperature shift,MBE1 concentration: 1 uM,0.237 °C
DNAJA1 (UniProt P31689),melting temperature shift,MBE1 concentration: 100 nM,-1.75 °C
same,melting temperature shift,MBE1 concentration: 1 uM,-1.36 °C
PRDX3 (UniProt P30048),melting temperature shift,MBE1 concentration: 100 nM,-0.238 °C
same,melting temperature shift,MBE1 concentration: 1 uM,-0.256 °C
UniProt P31323,melting temperature shift,MBE1 concentration: 100 nM,2.05 °C
same,melting temperature shift,MBE1 concentration: 1 uM,0.446 °C
GK (UniProt P32189),melting temperature shift,MBE1 concentration: 100 nM,-1.32 °C
same,melting temperature shift,MBE1 concentration: 1 uM,-0.435 °C
PTPN3 (UniProt P26045),melting temperature shift,MBE1 concentration: 100 nM,-0.325 °C
same,melting temperature shift,MBE1 concentration: 1 uM,-0.0329 °C
DLST (UniProt P36957),melting temperature shift,MBE1 concentration: 100 nM,-2.27 °C
same,melting temperature shift,MBE1 concentration: 1 uM,-2.91 °C
CDC25B (UniProt P30305),melting temperature shift,MBE1 concentration: 100 nM,0.189 °C
same,melting temperature shift,MBE1 concentration: 1 uM,-0.238 °C
UniProt P28676,melting temperature shift,MBE1 concentration: 100 nM,-0.495 °C
same,melting temperature shift,MBE1 concentration: 1 uM,0.0305 °C
UniProt P23378,melting temperature shift,MBE1 concentration: 100 nM,-1.65 °C
same,melting temperature shift,MBE1 concentration: 1 uM,-1.13 °C
UniProt P27986,melting temperature shift,MBE1 concentration: 100 nM,1.33 °C
same,melting temperature shift,MBE1 concentration: 1 uM,0.507 °C
RPL9 (UniProt P32969),melting temperature shift,MBE1 concentration: 100 nM,-2.19 °C
same,melting temperature shift,MBE1 concentration: 1 uM,3.93 °C
UniProt P35749,melting temperature shift,MBE1 concentration: 100 nM,-0.208 °C
same,melting temperature shift,MBE1 concentration: 1 uM,0.287 °C
UniProt P22304,melting temperature shift,MBE1 concentration: 100 nM,-4.68 °C
same,melting temperature shift,MBE1 concentration: 1 uM,2.76 °C
PRDX2 (UniProt P32119),melting temperature shift,MBE1 concentration: 100 nM,-0.598 °C
same,melting temperature shift,MBE1 concentration: 1 uM,-0.293 °C
AK4 (UniProt P27144),melting temperature shift,MBE1 concentration: 100 nM,-0.731 °C
same,melting temperature shift,MBE1 concentration: 1 uM,-0.0335 °C
ATP6V1B2 (UniProt P21281),melting temperature shift,MBE1 concentration: 100 nM,-0.691 °C
same,melting temperature shift,MBE1 concentration: 1 uM,0.743 °C
CTNNB1 (UniProt P35222),melting temperature shift,MBE1 concentration: 100 nM,-1.24 °C
same,melting temperature shift,MBE1 concentration: 1 uM,0.134 °C
UniProt P29375,melting temperature shift,MBE1 concentration: 100 nM,0.476 °C
same,melting temperature shift,MBE1 concentration: 1 uM,2.25 °C
UniProt P28161,melting temperature shift,MBE1 concentration: 100 nM,0.256 °C
same,melting temperature shift,MBE1 concentration: 1 uM,0.69 °C
DTYMK (UniProt P23919),melting temperature shift,MBE1 concentration: 100 nM,-1.06 °C
same,melting temperature shift,MBE1 concentration: 1 uM,1.11 °C
ATP5A1 (UniProt P25705),melting temperature shift,MBE1 concentration: 100 nM,-2.17 °C
same,melting temperature shift,MBE1 concentration: 1 uM,-2.73 °C
WEE1 (UniProt P30291),melting temperature shift,MBE1 concentration: 100 nM,-0.47 °C
same,melting temperature shift,MBE1 concentration: 1 uM,-2.5 °C
UniProt P20648,melting temperature shift,MBE1 concentration: 100 nM,-0.95 °C
same,melting temperature shift,MBE1 concentration: 1 uM,-0.739 °C
UniProt P31629,melting temperature shift,MBE1 concentration: 100 nM,0.0188 °C
same,melting temperature shift,MBE1 concentration: 1 uM,-2.57 °C
PRDX5 (UniProt P30044),melting temperature shift,MBE1 concentration: 100 nM,-1.64 °C
same,melting temperature shift,MBE1 concentration: 1 uM,-1.51 °C
UniProt P23470,melting temperature shift,MBE1 concentration: 100 nM,1.18 °C
same,melting temperature shift,MBE1 concentration: 1 uM,-0.25 °C
CBL (UniProt P22681),melting temperature shift,MBE1 concentration: 100 nM,-0.396 °C
same,melting temperature shift,MBE1 concentration: 1 uM,0.154 °C

# 28 consecutive records from above, for reference:
target,measurement,setting,value
CDK2 (UniProt P24941),melting temperature shift,MBE1 concentration: 1 uM,0.682 °C
ADSL (UniProt P30566),melting temperature shift,MBE1 concentration: 100 nM,-0.592 °C
same,melting temperature shift,MBE1 concentration: 1 uM,0.105 °C
JAK1 (UniProt P23458),melting temperature shift,MBE1 concentration: 100 nM,0 °C
same,melting temperature shift,MBE1 concentration: 1 uM,-0.476 °C
ACO1 (UniProt P21399),melting temperature shift,MBE1 concentration: 100 nM,-0.362 °C
same,melting temperature shift,MBE1 concentration: 1 uM,0.698 °C
UniProt P27338,melting temperature shift,MBE1 concentration: 100 nM,-5.16 °C
same,melting temperature shift,MBE1 concentration: 1 uM,-2.5 °C
SERPINB6 (UniProt P35237),melting temperature shift,MBE1 concentration: 100 nM,-0.959 °C
same,melting temperature shift,MBE1 concentration: 1 uM,0.342 °C
YWHAB (UniProt P31946),melting temperature shift,MBE1 concentration: 100 nM,-0.436 °C
same,melting temperature shift,MBE1 concentration: 1 uM,-0.503 °C
ADSS (UniProt P30520),melting temperature shift,MBE1 concentration: 100 nM,-0.933 °C
same,melting temperature shift,MBE1 concentration: 1 uM,-0.55 °C
CPOX (UniProt P36551),melting temperature shift,MBE1 concentration: 100 nM,-1.7 °C
same,melting temperature shift,MBE1 concentration: 1 uM,0.214 °C
UniProt P21397,melting temperature shift,MBE1 concentration: 100 nM,-0.611 °C
same,melting temperature shift,MBE1 concentration: 1 uM,-0.122 °C
ATP5C1 (UniProt P36542),melting temperature shift,MBE1 concentration: 100 nM,-0.958 °C
same,melting temperature shift,MBE1 concentration: 1 uM,-0.853 °C
SSFA2 (UniProt P28290),melting temperature shift,MBE1 concentration: 100 nM,-1.25 °C
same,melting temperature shift,MBE1 concentration: 1 uM,-0.533 °C
GNA11 (UniProt P29992),melting temperature shift,MBE1 concentration: 100 nM,-0.455 °C
same,melting temperature shift,MBE1 concentration: 1 uM,0.00611 °C
UBA1 (UniProt P22314),melting temperature shift,MBE1 concentration: 100 nM,0.391 °C
same,melting temperature shift,MBE1 concentration: 1 uM,0.202 °C
EPHB2 (UniProt P29323),melting temperature shift,MBE1 concentration: 100 nM,-0.738 °C
